This note sets out measurements from patent US6815187.

Results are given in words; binding and its absence hold for the method and conditions named. Some entries that bind do so weakly or less than the wild type.

The assay has as its target PKCα of RFPEC lysate (rat) (UniProt P05696). Description: immunoprecipitation of RFPEC lysate with syndecan-4 cytoplasmic tail-specific antiserum, immunoblot with polyclonal antibody to PKCα. A general note: Immunoblotting shows a protein as a band on a membrane.

B1: syndecan-4 cytoplasmic tail immunoprecipitated from RFPEC lysate (receptor, rat, UniProt P34901 148-202, looked up)
chain: TEVLAALIVGGVVGILFAVFLILLLVYRMKKKDEGSYDLGKKPIYKKAPTNEFYA
For B1, the binding entry is listed as “binds”.
